Over roughly 33,000 sequences, “E-score (-0.5 to 0.5)” has its median near -0.015; the highest 2% begin near 0.3. The list shows a part of the results.
These sequences were tested against T1, Abf1 (UniProt P14164) (assay: PBM E-score (8-mer binding enrichment) (E-score (-0.5 to 0.5)); higher = stronger / more preferred TF binding). Settings: protein concentration: 200 nM; construct: GST-full length.
T1 sequence: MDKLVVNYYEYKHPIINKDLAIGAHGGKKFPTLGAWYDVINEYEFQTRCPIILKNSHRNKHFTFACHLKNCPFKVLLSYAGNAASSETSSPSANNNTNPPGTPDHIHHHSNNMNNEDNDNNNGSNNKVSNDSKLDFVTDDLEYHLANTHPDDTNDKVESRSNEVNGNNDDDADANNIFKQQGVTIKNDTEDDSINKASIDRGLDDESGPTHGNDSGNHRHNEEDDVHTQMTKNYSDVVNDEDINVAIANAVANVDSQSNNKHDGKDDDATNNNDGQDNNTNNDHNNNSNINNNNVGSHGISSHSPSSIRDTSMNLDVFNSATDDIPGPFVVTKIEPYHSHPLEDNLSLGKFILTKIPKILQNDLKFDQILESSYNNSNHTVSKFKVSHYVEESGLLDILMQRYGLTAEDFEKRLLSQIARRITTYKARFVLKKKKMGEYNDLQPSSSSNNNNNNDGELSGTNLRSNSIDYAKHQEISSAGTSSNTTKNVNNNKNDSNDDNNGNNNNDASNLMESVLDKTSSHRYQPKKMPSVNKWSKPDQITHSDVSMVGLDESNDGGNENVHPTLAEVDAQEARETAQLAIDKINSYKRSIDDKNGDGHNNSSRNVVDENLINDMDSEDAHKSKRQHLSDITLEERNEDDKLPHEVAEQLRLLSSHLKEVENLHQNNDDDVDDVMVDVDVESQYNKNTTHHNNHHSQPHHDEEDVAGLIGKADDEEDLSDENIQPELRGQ
Method: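 Universal 'all 10-mer' protein binding microarrays (Agilent AMADID 015681) probed with GST-tagged S. cerevisiae TFs (full-length or DBD) made by in vitro transcription/translation (PURExpress), about 100-200 nM. Bound TF was detected with fluorescent anti-GST. Each ungapped 8-mer (which stands for itself and its reverse complement) is scored by the PBM enrichment score (E-score), a modified Wilcoxon-Mann-Whitney statistic from -0.5 to +0.5, computed with the Universal PBM Analysis Suite. Scale: above 0.35 generally sequence-specific binding.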

In order of rising “PBM E-score” value:
1. AAGCCCCC  -0.352
2. GGCCTGCA  -0.337
3. ATCGGGGG  -0.33
4. AGGGGCTA  -0.284
5. CCGCCCGG  -0.265
6. AGACTTGG  -0.263
7. CCCTCATA  -0.252
8. GCATGGGC  -0.249
9. AGCCAGCA  -0.239
10. GGCATCAA  -0.225
11. CGAAGGTC  -0.196
12. AGTGGTGG  -0.185
13. GAGCTGTA  -0.171
14. CCGGCCTC  -0.162
15. AAGAGAGA  -0.161
16. GGCGGCAC  -0.161
17. AAAGGCCG  -0.144
18. GCCTCAGC  -0.143
19. ATTCACTC  -0.142
20. ATCTATGG  -0.137
21. ATGGACTC  -0.134
22. CTCTACAG  -0.12
23. GGGGAGTA  -0.118
24. GCAAATGC  -0.112
25. AAGATTCT  -0.112
26. GGGGCAAC  -0.111
27. GCGCATCC  -0.11
28. ACTAGGAA  -0.109
29. AAACGCGG  -0.106
30. GCCGGTAA  -0.103
31. ATTGGCTC  -0.0984
32. CCCTGTTA  -0.0954
33. CCATTGGG  -0.0928
34. CAAATAGG  -0.0794
35. AGCGAAAT  -0.0778
36. ATGGCTAA  -0.0715
37. CATGTGCG  -0.0711
38. ACTGTTCT  -0.0573
39. AACTAACT  -0.0565
40. ATCTCCCG  -0.0535
41. GTAGTGCA  -0.0469
42. CCATCACG  -0.0432
43. AATGGGTG  -0.0386
44. ATAGTTCC  -0.0329
45. ATACTTAG  -0.0263
46. CTACTTTA  -0.0253
47. GCGAAAGA  -0.024
48. CAGTTCTA  -0.0197
49. AAAAGCTT  -0.0184
50. CTCTGAAA  -0.0176
51. AATTTAAG  -0.0175
52. CATCTATA  -0.0136
53. CCGCCGAC  -0.0124
54. GCCGGTAC  -0.0106
55. ATAGCTAA  -0.00918
56. AATTCCAG  -0.00589
57. ACACGACC  -0.00503
58. CGTTAGTC  0.00116
59. CTGGGTCA  0.00167
60. AGTTTTCG  0.00304
61. CGTTGCGC  0.00442
62. CATCTCGA  0.00497
63. AAAACCAA  0.00572
64. ACGCCCTC  0.00844
65. GAACTGTA  0.0102
66. TATAGATA  0.0107
67. CCTACGTC  0.0219
68. CAGTACAA  0.0284
69. GCATTCGC  0.0337
70. GGCAGTAC  0.0339
71. GAATACAA  0.035
72. CGGACGTA  0.0357
73. ATCGAATC  0.0398
74. GTGTCAAA  0.0408
75. AATTAGGT  0.043
76. ATTAAGCC  0.0493
77. GGATGTAC  0.0514
78. AATTATGC  0.0539
79. CGTGCCAA  0.0589
80. AGCGACCA  0.0713
81. CATCCTCA  0.0722
82. CTGCTCAC  0.0856
83. ATACTTGG  0.0857
84. AATCTCAC  0.0907
85. CATTAACC  0.0935
86. ATGAATTA  0.0997
87. ACCTATAC  0.108
88. TGAGTCAA  0.112
89. CTCGTGTC  0.118
90. ATTGTAAA  0.121
91. CAAATTCG  0.137
92. GACAAAAA  0.15
93. GTACGGGA  0.17
94. CGTCACTC  0.173
95. ATTCAACG  0.173
96. GAGCAGTA  0.176
97. ATTTCAAG  0.181
98. GTATACAA  0.184
99. ACGAGACA  0.185
100. CATTCCCG  0.187
101. ATCAGTCG  0.198
102. AACGGTAC  0.218
103. CTGTCAAC  0.224
104. AAATAAAT  0.241
105. TCACGCAA  0.246
106. ACATGTCC  0.271
107. GTTCACGA  0.3
108. AATGATCA  0.347
109. CAGTGATA  0.377

Reference: the supplement of paper PMC3334620
